Source: article PMC8789930
These are yes or no findings as the source states them, for the method shown. Binding seen in cells or lysates may run through a third protein. Some entries that bind do so weakly or less than the wild type. For some assays here: Where a sequence is shown, tags or fusion partners need not be part of it. Each block holds one substance with its values, some of them ahead of it.

The chains behind the UniProt entries cited, without tags or fusion partners.
UniProt Q14258: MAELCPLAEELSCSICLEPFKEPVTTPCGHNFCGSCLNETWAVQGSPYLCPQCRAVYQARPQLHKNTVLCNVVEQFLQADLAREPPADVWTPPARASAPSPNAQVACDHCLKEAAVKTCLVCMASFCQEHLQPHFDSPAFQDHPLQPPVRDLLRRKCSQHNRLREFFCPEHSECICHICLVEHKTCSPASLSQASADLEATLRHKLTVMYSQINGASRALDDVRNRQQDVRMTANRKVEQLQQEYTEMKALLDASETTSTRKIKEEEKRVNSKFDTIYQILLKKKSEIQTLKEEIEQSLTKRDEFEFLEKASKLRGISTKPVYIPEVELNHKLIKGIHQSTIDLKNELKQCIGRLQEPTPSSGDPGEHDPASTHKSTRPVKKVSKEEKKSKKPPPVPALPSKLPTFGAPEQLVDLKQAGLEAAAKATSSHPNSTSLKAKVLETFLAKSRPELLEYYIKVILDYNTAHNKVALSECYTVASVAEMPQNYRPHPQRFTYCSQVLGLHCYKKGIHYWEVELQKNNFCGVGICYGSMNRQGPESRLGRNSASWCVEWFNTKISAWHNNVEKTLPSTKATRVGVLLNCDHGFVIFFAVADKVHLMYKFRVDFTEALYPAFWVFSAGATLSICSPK
UniProt P13010: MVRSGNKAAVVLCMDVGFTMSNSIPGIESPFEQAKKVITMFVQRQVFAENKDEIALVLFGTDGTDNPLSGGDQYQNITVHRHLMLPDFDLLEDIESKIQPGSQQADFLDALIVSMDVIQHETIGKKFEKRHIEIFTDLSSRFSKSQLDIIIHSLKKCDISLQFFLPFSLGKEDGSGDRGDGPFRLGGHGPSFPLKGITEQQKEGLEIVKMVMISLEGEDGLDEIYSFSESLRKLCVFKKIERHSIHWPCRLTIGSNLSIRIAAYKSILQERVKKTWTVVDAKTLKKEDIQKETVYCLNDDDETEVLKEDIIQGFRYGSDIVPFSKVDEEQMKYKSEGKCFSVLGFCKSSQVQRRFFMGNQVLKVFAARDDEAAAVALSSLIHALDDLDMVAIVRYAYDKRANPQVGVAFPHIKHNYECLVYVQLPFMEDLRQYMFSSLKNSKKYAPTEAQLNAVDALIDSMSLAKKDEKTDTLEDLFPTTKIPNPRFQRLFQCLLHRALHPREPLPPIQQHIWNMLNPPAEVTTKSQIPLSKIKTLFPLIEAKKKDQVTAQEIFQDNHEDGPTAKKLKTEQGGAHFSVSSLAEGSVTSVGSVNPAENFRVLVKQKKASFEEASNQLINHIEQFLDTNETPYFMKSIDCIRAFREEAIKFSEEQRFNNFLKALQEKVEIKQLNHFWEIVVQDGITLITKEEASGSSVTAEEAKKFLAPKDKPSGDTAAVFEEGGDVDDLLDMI

Key:
[1] = target: TRIM25 (exogenous, MYC- or FLAG-tagged) (UniProt Q14258); assay: co-IP; exogenous (transfected, tagged) proteins in SUNE1 / NPC cells; lysate immunoprecipitated overnight at 4 °C with 3 μg antibody (anti-HA or anti-FLAG for USP44 and Ku80), Protein A/G magnetic beads, western blot
HA-USP44 = target: T1, HA-USP44 (UniProt Q9H0E7); assay: as above
T1 sequence: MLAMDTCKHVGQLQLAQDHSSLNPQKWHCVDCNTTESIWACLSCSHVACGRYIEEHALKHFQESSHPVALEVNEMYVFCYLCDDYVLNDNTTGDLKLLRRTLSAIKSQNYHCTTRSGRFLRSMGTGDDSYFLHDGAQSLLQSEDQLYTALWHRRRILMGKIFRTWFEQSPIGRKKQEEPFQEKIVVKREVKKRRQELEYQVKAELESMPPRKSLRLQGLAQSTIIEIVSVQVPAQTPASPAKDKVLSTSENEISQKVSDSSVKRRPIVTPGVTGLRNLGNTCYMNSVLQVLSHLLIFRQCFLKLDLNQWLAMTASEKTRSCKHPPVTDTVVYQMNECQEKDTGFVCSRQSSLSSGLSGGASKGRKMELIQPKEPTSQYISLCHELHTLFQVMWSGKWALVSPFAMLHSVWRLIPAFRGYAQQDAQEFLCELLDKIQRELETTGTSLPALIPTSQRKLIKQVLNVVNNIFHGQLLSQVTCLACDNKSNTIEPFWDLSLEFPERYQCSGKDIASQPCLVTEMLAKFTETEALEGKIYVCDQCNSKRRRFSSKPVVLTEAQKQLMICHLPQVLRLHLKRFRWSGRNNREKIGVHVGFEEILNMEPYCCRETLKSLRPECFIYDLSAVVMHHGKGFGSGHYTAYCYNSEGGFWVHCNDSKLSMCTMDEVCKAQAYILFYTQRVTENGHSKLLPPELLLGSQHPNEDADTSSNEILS

[2] = target: TRIM25 (endogenous) (human (endogenous in SUNE1 and other NPC cells)) (UniProt Q14258); assay: co-IP; endogenous proteins in NPC cells; lysate immunoprecipitated overnight at 4 °C with 3 μg antibody, Protein A/G magnetic beads, western blot
[3] = target: T2, USP44 (endogenous) (human (endogenous in NPC cells)) (UniProt Q9H0E7); assay: as above
T2 sequence: T1 sequence

binding [1]: binds
binding (HA-USP44): binds
Substance: FLAG-Ku80 (from UniProt P13010 1-732)

binding [2]: binds
Substance: Ku80 (endogenous) (from UniProt P13010 1-732)

binding [3]: binds
Substance: TRIM25 (endogenous) (from UniProt Q14258 1-630)

binding (HA-USP44): binds
Substance: TRIM25 (exogenous, MYC- or FLAG-tagged) (from UniProt Q14258 1-630)
